PubChem BioAssay AID686915 (National Center for Advancing Translational Sciences (NCATS), 2013)
The inconclusive results got no clear call from the source; some entries with a clear call stand among them for comparison. Where the call is inconclusive, the potency comes from a doubtful curve fit. The source made the active and inactive calls. The call rests on the fitted dose curve; in most records, active means well fitted inhibition curve with a large enough effect; inconclusive means small, poorly fitted or top-dose-only effect; inactive means no such curve, though single readings can be large or run the other way.

experiment: qHTS screen for inhibitors of ELG1-dependent DNA repair in human embryonic kidney (HEK293T) cells expressing luciferase-tagged ELG1: MMS Stimulated Assay for probe SAR; conditions: HEK293T ELG1-luciferase reporter, 16 h; series mostly up to 46.1 µM
Source text: Cancer cells divide rapidly compared to normal cells in the body. During cell division, cancer cells need to duplicate their genome by DNA replication. The failure of genome duplication leads to cancer cells' death. Therefore, inhibitors of DNA replication could specifically kill cancer cells. Based on this concept, many chemotherapeutic agents were developed and have been used to treat cancer patients. However, there are a limited number of agents available in the clinical setting, and some of those that do exist have low efficacy and severe side effects. Therefore, if we can find the compounds that effectively block DNA replication either by directly damaging DNA or by inhibiting other cellular mechanisms, the options for cancer treatment will be broadened. With this in mind, we developed a quantitative high-throughput ELG1-luciferase reporter gene assay. Small molecules that specifically block ELG1 function in response to DNA damage can be identified by monitoring the suppression of luciferase activity. Since ELG1 defines a pathway for repairing DNA damage, agents blocking ELG1 function can be used to sensitize cancer cells to chemotherapeutic agents whose mechanism of action involves the induction of DNA damage. NIH Molecular Libraries Probe Production Network [MLPCN] NIH Chemical Genomics Center [NCGC] MLPCN Grant: R03 MH092164 Assay Provider: Kyungjae Myung, NHGRI, NIH
ELG1-luc HEK293T cells will be seeded in 1536-well plates at a density of 2,000 cells / well. Approximately 5 hours after plating, compounds will be added to the plate by pin tool transfer and MMS will be added by FRD dispenser (final concentration of MMS = 10 µM). 16 hours following the addition of the compounds, luciferase activity will be measured using Amplight reagent.

Row | SMILES | Potency
1 | COc1ccc(-n2c(C)c(C(C)=O)c3cc(O)ccc32)cc1 | inconclusive: 0.743 µM [inhibitor, full curve]
2 | Fc1cc(Nc2nc(-c3ccncc3)nc3ccccc23)ccc1OC(F)(F)F | inconclusive: 23.5 µM [inhibitor, single point]
3 | Fc1cc(Nc2nc(-c3ccncc3)nc3ccccc23)ccc1-c1cccc(C(F)(F)F)c1 | active: 18.7 µM
4 | Fc1cc(Nc2nc(-c3ccncc3)nc3ccccc23)ccc1OCC(F)(F)F | inactive
5 | COc1cc(-c2nc(Nc3ccc(F)c(F)c3)c3ccccc3n2)cc(OC)n1 | inconclusive: 33.2 µM [inhibitor, single point]
6 | Oc1ccc(Nc2nc(-c3ccncc3)nc3ccccc23)cc1F | inconclusive: 23.5 µM [inhibitor, single point]
7 | Fc1ccc(Nc2nc(-c3ccncc3F)nc3ccccc23)cc1F | inconclusive: 8.33 µM [inhibitor, full curve]
8 | COc1nccc(-c2nc(Nc3ccc(F)c(F)c3)c3ccccc3n2)c1OC | inconclusive: 26.4 µM [inhibitor, single point]
9 | COC(=O)c1ccc(Nc2nc(-c3ccncc3)nc3ccccc23)cc1OC | inconclusive: 6.62 µM [inhibitor, full curve]
10 | COc1cc(Nc2nc(-c3ccncc3)nc3ccccc23)ccc1Cl | inconclusive: 26.4 µM [inhibitor, single point]
11 | Fc1ccc(-c2ccc(Nc3nc(-c4ccncc4)nc4ccccc34)cc2F)c(F)c1 | inconclusive: 13.2 µM [inhibitor, partial curve]
12 | Fc1cc(-c2nc(Nc3ccc(F)c(F)c3)c3ccccc3n2)ccn1 | inactive
13 | Fc1cc(Nc2nc(-c3ccncc3)nc3ccccc23)ccc1-c1cc(F)c(F)c(F)c1 | inactive
14 | Fc1cccc(Nc2nc(-c3ccncc3)nc3ccccc23)c1 | inconclusive: 16.6 µM [inhibitor, partial curve]
15 | Fc1ccc(-c2ccc(Nc3nc(-c4ccncc4)nc4ccccc34)cc2F)cc1 | inconclusive: 37.2 µM [inhibitor, partial curve, poor fit]
16 | Fc1ccc(Nc2nc(-c3ccncc3)nc3ccccc23)cc1F | inactive
17 | Fc1ccc(Nc2cc(-c3ccccc3)nc(-c3ccncc3)n2)cc1F | inconclusive: 26.4 µM [inhibitor, partial curve, poor fit]

Some of the entries above in another layout.
Fc1cc(Nc2nc(-c3ccncc3)nc3ccccc23)ccc1OCC(F)(F)F
  Potency: inactive
COc1cc(-c2nc(Nc3ccc(F)c(F)c3)c3ccccc3n2)cc(OC)n1
  Potency: inconclusive: 33.2 µM [inhibitor, single point]
